Measurements taken from the supplement of paper PMC10849652.
Some of the results follow.

Amino acid sequences for entries named in this document (tags omitted). A change or cut given only in a name is not applied to a line headed by its entry.
UniProt Q8WVY7: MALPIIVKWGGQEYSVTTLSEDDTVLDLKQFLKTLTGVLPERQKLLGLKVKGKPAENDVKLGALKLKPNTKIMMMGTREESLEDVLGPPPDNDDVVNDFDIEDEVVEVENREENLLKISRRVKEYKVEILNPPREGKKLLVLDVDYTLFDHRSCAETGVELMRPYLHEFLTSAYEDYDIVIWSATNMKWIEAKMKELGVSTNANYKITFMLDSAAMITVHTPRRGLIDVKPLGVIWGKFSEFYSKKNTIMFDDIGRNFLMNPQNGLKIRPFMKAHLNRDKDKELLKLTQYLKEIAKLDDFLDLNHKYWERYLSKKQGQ
UniProt Q9NQZ2: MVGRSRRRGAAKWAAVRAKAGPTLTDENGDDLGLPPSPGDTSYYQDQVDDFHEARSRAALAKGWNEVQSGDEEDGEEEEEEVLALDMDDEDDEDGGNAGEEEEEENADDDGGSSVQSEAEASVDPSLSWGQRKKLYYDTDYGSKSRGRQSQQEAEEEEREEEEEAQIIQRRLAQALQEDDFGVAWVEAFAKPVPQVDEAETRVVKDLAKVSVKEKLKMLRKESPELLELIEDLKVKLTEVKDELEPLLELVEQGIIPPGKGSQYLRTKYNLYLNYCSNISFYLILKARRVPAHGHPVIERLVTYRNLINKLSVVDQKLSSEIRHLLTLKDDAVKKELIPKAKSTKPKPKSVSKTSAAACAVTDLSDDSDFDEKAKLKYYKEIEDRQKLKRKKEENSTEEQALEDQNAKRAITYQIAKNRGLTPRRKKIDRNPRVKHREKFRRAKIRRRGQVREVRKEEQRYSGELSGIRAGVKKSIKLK
UniProt Q92890: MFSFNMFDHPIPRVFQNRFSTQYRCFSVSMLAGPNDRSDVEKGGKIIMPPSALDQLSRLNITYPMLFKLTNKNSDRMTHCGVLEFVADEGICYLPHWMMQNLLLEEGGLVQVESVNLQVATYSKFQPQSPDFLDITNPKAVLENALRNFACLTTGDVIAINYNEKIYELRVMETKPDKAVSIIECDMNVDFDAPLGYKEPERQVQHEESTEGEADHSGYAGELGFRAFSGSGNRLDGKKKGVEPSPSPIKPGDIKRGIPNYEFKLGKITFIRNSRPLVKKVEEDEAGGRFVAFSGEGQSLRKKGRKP
UniProt O94763, whole entry, looked up: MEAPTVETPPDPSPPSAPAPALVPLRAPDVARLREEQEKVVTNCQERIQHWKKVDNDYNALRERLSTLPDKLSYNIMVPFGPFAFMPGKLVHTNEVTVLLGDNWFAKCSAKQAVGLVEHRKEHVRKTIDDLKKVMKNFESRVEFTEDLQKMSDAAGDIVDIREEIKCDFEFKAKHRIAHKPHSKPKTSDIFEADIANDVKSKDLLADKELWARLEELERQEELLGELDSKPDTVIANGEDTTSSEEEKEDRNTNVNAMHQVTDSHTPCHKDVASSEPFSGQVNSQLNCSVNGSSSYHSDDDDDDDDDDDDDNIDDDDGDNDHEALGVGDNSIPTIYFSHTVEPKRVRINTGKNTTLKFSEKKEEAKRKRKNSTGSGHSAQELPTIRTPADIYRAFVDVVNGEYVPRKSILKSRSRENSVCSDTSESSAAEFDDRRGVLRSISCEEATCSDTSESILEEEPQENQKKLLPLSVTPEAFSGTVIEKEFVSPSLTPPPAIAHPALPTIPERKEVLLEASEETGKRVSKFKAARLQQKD
UniProt Q9Y4E8: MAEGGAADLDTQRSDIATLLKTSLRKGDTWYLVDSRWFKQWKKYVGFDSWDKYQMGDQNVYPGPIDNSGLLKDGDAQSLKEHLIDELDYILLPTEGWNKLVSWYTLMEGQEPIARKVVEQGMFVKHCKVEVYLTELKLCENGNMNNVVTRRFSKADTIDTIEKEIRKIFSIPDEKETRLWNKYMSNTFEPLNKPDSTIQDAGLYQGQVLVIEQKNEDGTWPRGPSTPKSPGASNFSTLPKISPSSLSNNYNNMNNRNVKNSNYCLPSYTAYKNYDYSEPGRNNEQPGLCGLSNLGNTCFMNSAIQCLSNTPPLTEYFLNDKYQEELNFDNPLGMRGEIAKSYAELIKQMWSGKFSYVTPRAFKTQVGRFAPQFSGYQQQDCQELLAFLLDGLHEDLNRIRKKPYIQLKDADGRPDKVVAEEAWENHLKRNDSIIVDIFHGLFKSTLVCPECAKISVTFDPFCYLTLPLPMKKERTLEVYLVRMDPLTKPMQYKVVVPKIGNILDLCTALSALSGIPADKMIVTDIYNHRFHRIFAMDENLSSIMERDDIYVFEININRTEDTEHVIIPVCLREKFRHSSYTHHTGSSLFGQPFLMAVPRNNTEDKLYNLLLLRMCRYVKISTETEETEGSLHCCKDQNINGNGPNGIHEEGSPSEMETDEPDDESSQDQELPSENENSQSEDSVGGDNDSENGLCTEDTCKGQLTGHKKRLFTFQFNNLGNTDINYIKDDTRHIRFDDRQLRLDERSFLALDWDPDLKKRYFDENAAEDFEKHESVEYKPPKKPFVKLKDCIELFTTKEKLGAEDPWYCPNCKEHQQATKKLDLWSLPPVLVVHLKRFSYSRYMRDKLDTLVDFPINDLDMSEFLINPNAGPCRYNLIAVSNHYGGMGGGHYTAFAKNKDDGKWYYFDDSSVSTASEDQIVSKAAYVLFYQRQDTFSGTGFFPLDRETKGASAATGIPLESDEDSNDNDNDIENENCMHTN
UniProt Q9UDW1: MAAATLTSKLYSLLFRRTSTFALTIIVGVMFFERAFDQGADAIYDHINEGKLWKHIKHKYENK
UniProt A6NIH7: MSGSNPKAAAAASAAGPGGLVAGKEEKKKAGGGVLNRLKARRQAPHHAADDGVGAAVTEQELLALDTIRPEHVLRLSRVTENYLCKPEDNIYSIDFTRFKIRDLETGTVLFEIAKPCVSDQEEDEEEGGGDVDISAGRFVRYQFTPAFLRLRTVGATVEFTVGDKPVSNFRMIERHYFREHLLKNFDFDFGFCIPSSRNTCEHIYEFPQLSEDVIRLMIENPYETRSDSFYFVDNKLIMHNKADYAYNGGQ
UniProt P51809, whole entry, looked up: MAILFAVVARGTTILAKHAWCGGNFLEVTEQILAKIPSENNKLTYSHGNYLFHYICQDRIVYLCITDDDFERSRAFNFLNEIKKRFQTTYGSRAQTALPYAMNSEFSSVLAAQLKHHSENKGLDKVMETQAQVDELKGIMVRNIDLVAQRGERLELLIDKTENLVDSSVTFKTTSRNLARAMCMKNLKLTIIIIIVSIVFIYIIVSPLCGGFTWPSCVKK
UniProt Q9BZI7: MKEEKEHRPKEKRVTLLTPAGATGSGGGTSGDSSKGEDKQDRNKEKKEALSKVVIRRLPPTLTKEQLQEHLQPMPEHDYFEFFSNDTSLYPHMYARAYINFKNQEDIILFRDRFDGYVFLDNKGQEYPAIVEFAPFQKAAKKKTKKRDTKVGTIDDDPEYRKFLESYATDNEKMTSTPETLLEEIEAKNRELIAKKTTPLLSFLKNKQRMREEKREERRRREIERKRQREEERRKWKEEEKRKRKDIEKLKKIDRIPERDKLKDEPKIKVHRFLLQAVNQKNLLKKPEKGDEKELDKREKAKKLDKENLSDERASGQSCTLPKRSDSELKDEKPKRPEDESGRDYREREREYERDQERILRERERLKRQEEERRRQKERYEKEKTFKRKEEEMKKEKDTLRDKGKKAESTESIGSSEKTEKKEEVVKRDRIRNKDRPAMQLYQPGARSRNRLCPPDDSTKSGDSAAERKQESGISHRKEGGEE
UniProt Q96LJ8: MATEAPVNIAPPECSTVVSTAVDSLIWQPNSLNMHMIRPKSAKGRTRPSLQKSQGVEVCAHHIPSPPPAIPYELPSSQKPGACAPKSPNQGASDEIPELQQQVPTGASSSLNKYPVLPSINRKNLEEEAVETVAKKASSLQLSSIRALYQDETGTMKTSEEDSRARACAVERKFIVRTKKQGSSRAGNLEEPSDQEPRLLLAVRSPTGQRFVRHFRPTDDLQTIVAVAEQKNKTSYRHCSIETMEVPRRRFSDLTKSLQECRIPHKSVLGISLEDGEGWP
UniProt Q6ZT12: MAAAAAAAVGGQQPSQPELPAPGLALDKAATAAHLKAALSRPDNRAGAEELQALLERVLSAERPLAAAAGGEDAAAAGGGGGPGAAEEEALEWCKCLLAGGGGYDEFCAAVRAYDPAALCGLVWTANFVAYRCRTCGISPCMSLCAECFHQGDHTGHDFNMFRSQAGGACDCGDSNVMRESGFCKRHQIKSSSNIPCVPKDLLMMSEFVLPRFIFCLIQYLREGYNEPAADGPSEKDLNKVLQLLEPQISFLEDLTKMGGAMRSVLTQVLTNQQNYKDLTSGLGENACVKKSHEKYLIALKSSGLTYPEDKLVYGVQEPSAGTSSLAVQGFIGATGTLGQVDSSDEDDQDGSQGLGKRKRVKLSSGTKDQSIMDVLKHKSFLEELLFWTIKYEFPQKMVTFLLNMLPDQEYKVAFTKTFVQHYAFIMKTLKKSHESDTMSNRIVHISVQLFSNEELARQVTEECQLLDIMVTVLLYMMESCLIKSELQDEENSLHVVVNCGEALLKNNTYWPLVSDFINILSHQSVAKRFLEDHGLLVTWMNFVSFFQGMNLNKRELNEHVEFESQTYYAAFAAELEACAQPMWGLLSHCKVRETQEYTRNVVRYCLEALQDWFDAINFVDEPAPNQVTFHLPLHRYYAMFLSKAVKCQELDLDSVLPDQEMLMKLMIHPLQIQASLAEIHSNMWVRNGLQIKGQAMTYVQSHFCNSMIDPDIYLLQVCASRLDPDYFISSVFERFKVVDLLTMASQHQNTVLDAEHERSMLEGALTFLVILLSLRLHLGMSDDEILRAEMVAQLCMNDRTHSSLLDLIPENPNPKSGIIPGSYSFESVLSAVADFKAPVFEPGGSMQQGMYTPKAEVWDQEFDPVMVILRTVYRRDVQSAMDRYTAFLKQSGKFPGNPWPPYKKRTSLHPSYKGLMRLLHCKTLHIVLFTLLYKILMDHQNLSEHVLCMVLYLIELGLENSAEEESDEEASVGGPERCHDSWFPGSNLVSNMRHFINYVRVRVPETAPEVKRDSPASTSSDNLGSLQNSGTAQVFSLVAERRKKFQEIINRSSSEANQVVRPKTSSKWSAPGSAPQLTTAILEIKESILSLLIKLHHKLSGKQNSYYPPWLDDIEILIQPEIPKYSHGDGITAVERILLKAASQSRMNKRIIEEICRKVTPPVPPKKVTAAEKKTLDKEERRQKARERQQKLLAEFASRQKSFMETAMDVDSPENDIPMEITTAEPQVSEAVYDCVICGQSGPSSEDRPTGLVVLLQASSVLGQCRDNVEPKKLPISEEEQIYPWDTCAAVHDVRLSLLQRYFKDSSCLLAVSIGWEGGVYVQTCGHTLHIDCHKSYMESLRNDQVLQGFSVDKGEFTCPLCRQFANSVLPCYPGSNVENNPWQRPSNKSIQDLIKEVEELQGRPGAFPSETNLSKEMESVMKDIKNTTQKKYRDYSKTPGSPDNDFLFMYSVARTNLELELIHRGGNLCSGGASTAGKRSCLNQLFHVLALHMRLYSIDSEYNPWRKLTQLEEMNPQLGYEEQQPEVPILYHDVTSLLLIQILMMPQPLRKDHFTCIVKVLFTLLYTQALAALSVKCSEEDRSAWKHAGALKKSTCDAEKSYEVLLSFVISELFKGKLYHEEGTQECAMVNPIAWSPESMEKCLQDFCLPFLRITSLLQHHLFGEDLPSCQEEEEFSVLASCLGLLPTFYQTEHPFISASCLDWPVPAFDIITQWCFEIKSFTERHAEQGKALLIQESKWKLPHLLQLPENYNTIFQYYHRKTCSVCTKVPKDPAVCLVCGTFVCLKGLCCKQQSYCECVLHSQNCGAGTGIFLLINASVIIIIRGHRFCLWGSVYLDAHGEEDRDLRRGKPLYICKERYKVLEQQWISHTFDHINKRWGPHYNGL
UniProt Q969X6: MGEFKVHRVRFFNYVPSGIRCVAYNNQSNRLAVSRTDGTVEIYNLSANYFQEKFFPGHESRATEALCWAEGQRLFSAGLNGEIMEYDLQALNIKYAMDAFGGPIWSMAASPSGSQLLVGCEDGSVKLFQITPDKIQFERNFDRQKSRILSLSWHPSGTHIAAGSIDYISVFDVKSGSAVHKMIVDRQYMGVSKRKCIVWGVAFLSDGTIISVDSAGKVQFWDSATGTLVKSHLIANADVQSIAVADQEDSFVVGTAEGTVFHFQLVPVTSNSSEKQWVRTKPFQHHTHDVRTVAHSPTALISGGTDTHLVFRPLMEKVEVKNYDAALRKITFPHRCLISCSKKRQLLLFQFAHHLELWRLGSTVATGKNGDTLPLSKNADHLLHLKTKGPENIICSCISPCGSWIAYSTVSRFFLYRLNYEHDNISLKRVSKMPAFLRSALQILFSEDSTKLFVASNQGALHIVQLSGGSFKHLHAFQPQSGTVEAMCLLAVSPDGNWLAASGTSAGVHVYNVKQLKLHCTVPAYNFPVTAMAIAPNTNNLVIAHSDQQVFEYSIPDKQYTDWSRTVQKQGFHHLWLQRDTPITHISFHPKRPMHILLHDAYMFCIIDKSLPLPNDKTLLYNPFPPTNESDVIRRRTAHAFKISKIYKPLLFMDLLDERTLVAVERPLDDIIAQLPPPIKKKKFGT

What was measured:
Assay in all cases: log2 fold change, soluble protein after heating vs DMSO (PISA); higher = thermal stabilisation; K562 cells, 10 uM, 30 min; active = over 0.2 and 3.5 SD of the protein, either way, in both replicates (recomputed)
[1] = compound: CC[C@@H]1C(=O)N(C)c2cnc(Nc3ccc(C(=O)NC4CCN(C)CC4)cc3OC)nc2N1C1CCCC1
How it was run: (§1)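 Values are thermal stability changes relative to control samples and are taken from duplicates. They are stated as log2 fold changes. Before quantification by TMTpro 16plex LC-MS/MS with equalised channel sums, K562 cells at 2×10^6 cells/mL were treated with 10 μM compound for 30 min, heated in aliquots for 3 min across 48°C-58°C, pooled, extracted in PBS with 0.5% NP-40 at 4°C, and centrifuged at 21,000xg for 90 min to give the soluble supernatant.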

volasertib = compound: CC[C@@H]1C(=O)N(C)c2cnc(Nc3ccc(C(=O)N[C@H]4CC[C@H](N5CCN(CC6CC6)CC5)CC4)cc3OC)nc2N1C(C)C [volasertib]
How it was run: as §1

[2] = compound: CC[C@H](C)N1C=C(C2=C(C=C(C=C21)C3=CN=C(C=C3)N4CCNCC4)C(=O)NCC5=C(C=C(NC5=O)C)C)C
How it was run: as §1

epoxomicin = compound: CC[C@H](C)[C@@H](C(=O)N[C@@H]([C@@H](C)O)C(=O)N[C@@H](CC(C)C)C(=O)[C@]1(CO1)C)NC(=O)[C@H]([C@@H](C)CC)N(C)C(=O)C [epoxomicin]
How it was run: as §1

[3] = compound: CCn1cc(-c2ccnc3[nH]c(-c4cccc(CN(C)C)c4)cc23)c(-c2ccc(NC(=O)N(C)C)cc2)n1
How it was run: as §1

[4] = compound: CN(C)CC(=O)Nc1ccc2[nH]c(=O)c3ccccc3c2c1
How it was run: as §1

[5] = compound: CN1C2=C(C3=C1C(=O)N(N=C3)CC4=CC(=CC=C4)N)SC(=C2)S(=O)C
How it was run: as §1

[6] = compound: CN1CCC(CNc2ccc3ncc(-c4cccc(OC(F)(F)F)c4)n3n2)CC1
How it was run: as §1

saracatinib = compound: CN1CCN(CCOc2cc(OC3CCOCC3)c3c(Nc4c(Cl)ccc5c4OCO5)ncnc3c2)CC1 [saracatinib]
How it was run: as §1

sotrastaurin = compound: CN1CCN(c2nc(C3=C(c4c[nH]c5ccccc45)C(=O)NC3=O)c3ccccc3n2)CC1 [sotrastaurin]
How it was run: as §1

Tubastatin A = compound: CN1CCc2c(c3ccccc3n2Cc2ccc(C(=O)NO)cc2)C1 [Tubastatin A]
How it was run: as §1

[7] = compound: CNC(=O)C1=CC=CC=C1NC2=NC(=NC=C2Cl)NC3=C(C=C(C=C3)N4CCOCC4)OC
How it was run: as §1

defactinib = compound: CNC(=O)c1ccc(Nc2ncc(C(F)(F)F)c(NCc3nccnc3N(C)S(C)(=O)=O)n2)cc1 [defactinib]
How it was run: as §1

rucaparib = compound: CNCc1ccc(-c2[nH]c3cc(F)cc4c3c2CCNC4=O)cc1 [rucaparib]
How it was run: as §1

[8] = compound: CNc1nc(-c2ccc3c(N)n[nH]c3c2)cc(N2C[C@@H](C(=O)NC3CCCCC3)CC[C@H]2C)n1
How it was run: as §1

encorafenib = compound: COC(=O)N[C@@H](C)CNc1nccc(-c2cn(C(C)C)nc2-c2cc(Cl)cc(NS(C)(=O)=O)c2F)n1 [encorafenib]
How it was run: as §1

[9] = compound: COC(=O)[C@H](CCSC)NC(=O)C1=C(C=C(C=C1)NC[C@H](CS)N)C2=CC=CC=C2
How it was run: as §1

[10] = compound: CCn1c(C(=O)N(C2CC2)C2CC2)cc2c3c(ncn3C)c(Nc3cc(C)n(C)n3)nc21
How it was run: as §1

rosiglitazone = compound: CN(CCOC1=CC=C(C=C1)C[C@H]2C(=O)NC(=O)S2)C3=CC=CC=N3 (racemic) [rosiglitazone]
How it was run: as §1

alvocidib = compound: CN1CC[C@H](c2c(O)cc(O)c3c(=O)cc(-c4ccccc4Cl)oc23)[C@H](O)C1 [alvocidib]
How it was run: as §1

Target | log2 fold change [1] | log2 fold change (volasertib) | log2 fold change [2] | log2 fold change (epoxomicin) | log2 fold change [3] | log2 fold change [4] | log2 fold change [5] | log2 fold change [6] | log2 fold change (saracatinib) | log2 fold change (sotrastaurin) | log2 fold change (Tubastatin A) | log2 fold change [7] | log2 fold change (defactinib) | log2 fold change (rucaparib) | log2 fold change [8] | log2 fold change (encorafenib) | log2 fold change [9] | log2 fold change [10] | log2 fold change (rosiglitazone) | log2 fold change (alvocidib)
UBLCP1 (UniProt Q8WVY7) | inactive: -0.191 | active: -0.356 | inactive: 0.019 | inactive: 0.168 | inactive: -0.072 | inactive: 0.039 | inactive: -0.024 | inactive: 0.013 | inactive: 0.036 | inactive: -0.032 | inactive: 0.147 | inactive: 0.027 | inactive: -0.016 | inactive: -0.068 | inactive: -0.038 | inactive: 0.088 | inactive: -0.034 |  |  | 
UTP3 (UniProt Q9NQZ2) | inactive: 0.067 | inactive: -0.012 |  | inactive: -0.376 | inactive: 0.236 | inactive: -0.052 | inactive: 0.165 | inactive: 0.092 | inactive: 0.232 | inactive: -0.1 | inactive: 0.067 | inactive: 0.094 | inactive: 0.104 | inactive: 0.238 | inactive: -0.106 | inactive: 0.23 | inactive: 0.051 |  |  | 
UBE4A isoform 2 (UniProt Q14139) | inactive: -0.126 | active: -0.584 | inactive: 0.123 | inactive: 0.087 | inactive: -0.055 | inactive: 0.053 | inactive: 0.159 | active: -0.436 | inactive: -0.024 | inactive: -0.148 | inactive: -0.009 | inactive: 0.006 | inactive: -0.017 | inactive: 0.021 | inactive: -0.079 | inactive: 0.03 | inactive: -0.078 |  |  | 
UFD1 isoform 1 (UniProt Q92890) | inactive: -0.009 | inactive: 0.021 | inactive: 0.008 | inactive: 0.063 | inactive: 0.063 | inactive: 0.003 | inactive: -0.045 | inactive: -0.015 | inactive: 0.008 | inactive: 0.005 | inactive: 0.027 | inactive: -0.022 | inactive: -0.013 | inactive: -0.02 | inactive: -0.054 | inactive: -0.004 | inactive: 0 |  |  | 
URI1 isoform 4 (UniProt O94763) | inactive: -0.016 |  | inactive: 0.245 | inactive: 0.218 | inactive: 0.225 | inactive: 0.081 | inactive: 0.004 | inactive: -0.02 | inactive: 0.083 | inactive: -0.228 | inactive: 0.104 | inactive: 0.071 | inactive: 0.002 | inactive: 0.143 | inactive: -0.078 | inactive: 0.101 | inactive: 0.155 | inactive: -0.198 | inactive: -0.079 | inactive: 0.027
USP15 (UniProt Q9Y4E8) | inactive: -0.095 | active: -0.32 | inactive: 0.066 | inactive: 0.03 | inactive: -0.056 | inactive: 0.031 | inactive: -0.006 | inactive: -0.129 | inactive: -0.013 | inactive: -0.093 | inactive: 0.014 | inactive: 0.049 | inactive: -0.093 | inactive: 0.032 | inactive: 0.019 | inactive: 0.061 | inactive: -0.031 |  |  | 
UTP18 (UniProt Q9Y5J1) | inactive: 0.202 |  | inactive: -0.021 | inactive: -0.045 | inactive: 0.066 |  |  | inactive: 0.13 |  | inactive: -0.036 |  | inactive: 0.173 |  | inactive: 0.488 |  | inactive: 0.196 |  | inactive: 0.121 | inactive: -0.352 | 
UQCR10 (UniProt Q9UDW1) | inactive: 0.093 | inactive: -0.102 | inactive: -0.031 | inactive: 0.005 | inactive: -0.112 | inactive: 0.008 | inactive: -0.016 | inactive: 0.177 | inactive: 0.001 | inactive: 0.121 | inactive: -0.103 | inactive: 0.018 | inactive: 0.039 | inactive: -0.063 | inactive: 0.018 | inactive: 0.001 | inactive: -0.031 |  |  | 
UNC119B (UniProt A6NIH7) | inactive: -0.168 | inactive: 0.066 | inactive: -0.224 |  | inactive: -0.104 | inactive: -0.023 | inactive: 0.004 | inactive: 0.047 | inactive: -0.076 | inactive: 0.013 | inactive: 0.124 | inactive: -0.031 | inactive: -0.064 | inactive: 0.133 | inactive: 0.316 | inactive: 0.026 | inactive: -0.048 |  |  | 
VAMP7 (UniProt P51809) | inactive: -0.057 | inactive: -0.019 | inactive: 0.009 | inactive: 0.045 | inactive: -0.026 | inactive: 0.014 | inactive: -0.07 | inactive: -0.181 | inactive: 0.029 | inactive: 0.012 | inactive: -0.001 | inactive: 0.03 | inactive: -0.028 | inactive: -0.027 | inactive: -0.022 | inactive: 0.029 | inactive: -0.011 |  |  | 
USP9X (UniProt Q93008) | inactive: -0.108 | active: -0.382 | inactive: 0.038 | inactive: 0.01 | inactive: -0.056 | inactive: 0.01 | inactive: -0.028 | inactive: -0.21 | inactive: -0.006 | inactive: -0.073 | inactive: -0.014 | inactive: -0.022 | inactive: -0.03 | inactive: 0.032 | inactive: -0.003 | inactive: 0.082 | inactive: -0.009 |  |  | 
ULK3 isoform 4 (UniProt Q6PHR2) | inactive: -0.402 | inactive: -0.261 |  | inactive: 0.153 | inactive: -0.021 |  |  | inactive: -0.615 |  | inactive: -0.166 |  |  |  | inactive: -0.053 |  | inactive: 0.067 |  |  | inactive: 0.1 | 
USF3 (UniProt Q68DE3) | inactive: 0.071 | inactive: -0.01 |  | inactive: -0.19 |  | inactive: -0.143 |  |  |  | inactive: 0.015 |  |  | inactive: -0.074 | inactive: -0.027 |  | inactive: -0.063 | inactive: 0.051 |  | inactive: 0.007 | 
USP34 (UniProt Q70CQ2) | inactive: -0.215 | active: -0.455 | inactive: -0.023 | inactive: 0.02 | inactive: -0.043 | inactive: 0.014 | inactive: 0.015 | inactive: -0.201 | inactive: 0.006 | inactive: -0.102 | inactive: 0.069 | inactive: -0.049 | inactive: -0.164 | inactive: -0.055 | inactive: -0.015 | inactive: 0.08 | inactive: 0.002 |  |  | 
USP25 isoform 3 (UniProt Q9UHP3) | inactive: -0.085 | active: -0.297 | inactive: 0.046 | inactive: 0.008 | inactive: -0.004 | inactive: 0.041 | inactive: -0.03 | inactive: -0.006 | inactive: 0.045 | inactive: -0.003 | inactive: 0.061 | inactive: 0.044 | inactive: -0.045 | inactive: 0.019 | inactive: -0.028 | inactive: 0.01 | inactive: -0.033 |  |  | 
UPF3B (UniProt Q9BZI7) | inactive: 0.146 | inactive: 0.333 | inactive: 0.059 | inactive: -0.388 | inactive: 0.271 | inactive: -0.1 | inactive: 0.28 | inactive: 0.341 | inactive: -0.099 | inactive: 0.002 | inactive: 0.114 | inactive: 0.045 | inactive: 0.413 | inactive: 0.286 | inactive: 0.035 | inactive: 0.108 | inactive: 0.007 |  |  | 
UBXN10 (UniProt Q96LJ8) | inactive: -0.057 | inactive: -0.319 | inactive: 0.156 | inactive: 0.127 | inactive: 0.014 | inactive: -0.088 | inactive: 0.087 | inactive: -0.103 | inactive: 0.111 | inactive: 0.122 | inactive: 0.036 | inactive: -0.152 | inactive: 0.254 | inactive: -0.05 | inactive: -0.049 | inactive: -0.074 | inactive: 0.014 |  |  | 
UBR3 isoform 4 (UniProt Q6ZT12) | inactive: -0.312 | inactive: -0.374 |  | inactive: 0.407 |  | inactive: -0.014 | inactive: 0.216 |  | inactive: 0 | inactive: -0.185 | inactive: 0.096 | inactive: 0.32 | inactive: -0.027 | inactive: -0.158 | inactive: -0.008 | inactive: 0.157 | inactive: -0.085 | inactive: -0.11 | inactive: 0.316 | inactive: -0.027
UTP4 (UniProt Q969X6) | inactive: 0.032 | inactive: 0.006 | inactive: -0.017 | inactive: -0.02 | inactive: 0.043 | inactive: -0.036 | inactive: -0.061 | active: 0.233 | inactive: 0.05 | inactive: 0.013 | inactive: -0.097 | inactive: 0.015 | inactive: 0.178 | inactive: 0.086 | inactive: 0.002 | inactive: -0.016 | inactive: 0.041 |  |  | 

Exported as a markdown table: part of the list above

| Target | log2 fold change [1] | log2 fold change (volasertib) | log2 fold change [2] | log2 fold change (epoxomicin) | log2 fold change [3] | log2 fold change [4] | log2 fold change [5] | log2 fold change [6] | log2 fold change (saracatinib) | log2 fold change (sotrastaurin) | log2 fold change (Tubastatin A) | log2 fold change [7] | log2 fold change (defactinib) | log2 fold change (rucaparib) | log2 fold change [8] | log2 fold change (encorafenib) | log2 fold change [9] | log2 fold change [10] | log2 fold change (rosiglitazone) | log2 fold change (alvocidib) |
| --- | --- | --- | --- | --- | --- | --- | --- | --- | --- | --- | --- | --- | --- | --- | --- | --- | --- | --- | --- | --- |
| UPF3B (UniProt Q9BZI7) | inactive: 0.146 | inactive: 0.333 | inactive: 0.059 | inactive: -0.388 | inactive: 0.271 | inactive: -0.1 | inactive: 0.28 | inactive: 0.341 | inactive: -0.099 | inactive: 0.002 | inactive: 0.114 | inactive: 0.045 | inactive: 0.413 | inactive: 0.286 | inactive: 0.035 | inactive: 0.108 | inactive: 0.007 |  |  |  |
| UBXN10 (UniProt Q96LJ8) | inactive: -0.057 | inactive: -0.319 | inactive: 0.156 | inactive: 0.127 | inactive: 0.014 | inactive: -0.088 | inactive: 0.087 | inactive: -0.103 | inactive: 0.111 | inactive: 0.122 | inactive: 0.036 | inactive: -0.152 | inactive: 0.254 | inactive: -0.05 | inactive: -0.049 | inactive: -0.074 | inactive: 0.014 |  |  |  |
| UBR3 isoform 4 (UniProt Q6ZT12) | inactive: -0.312 | inactive: -0.374 |  | inactive: 0.407 |  | inactive: -0.014 | inactive: 0.216 |  | inactive: 0 | inactive: -0.185 | inactive: 0.096 | inactive: 0.32 | inactive: -0.027 | inactive: -0.158 | inactive: -0.008 | inactive: 0.157 | inactive: -0.085 | inactive: -0.11 | inactive: 0.316 | inactive: -0.027 |
| UTP4 (UniProt Q969X6) | inactive: 0.032 | inactive: 0.006 | inactive: -0.017 | inactive: -0.02 | inactive: 0.043 | inactive: -0.036 | inactive: -0.061 | active: 0.233 | inactive: 0.05 | inactive: 0.013 | inactive: -0.097 | inactive: 0.015 | inactive: 0.178 | inactive: 0.086 | inactive: 0.002 | inactive: -0.016 | inactive: 0.041 |  |  |  |
